Assay results taken from US5846743A, “Polyphoshoinositide binding peptides for intracellular drug delivery” (Brigham and Women's Hospital, Inc., priority 1996, dated 1998).
“Also recorded” adds a separate entry of the source. Part of at least one peptide drawing is inferred or uncertain, most often the ends. Where a SMILES comes first, the peptide text is derived from it. Where no end group is shown, it is not given here. The star is where a group is joined. RhodamineB = CCN(CC)c1ccc2c(-c3ccccc3C(=O)*)c3ccc(=[N+](CC)CC)cc-3oc2c1

Experiments:
neutrophils = test: Penetration of neutrophil cell membranes; assay type: cell-based
human blood monocytes = test: Transport into monocytes; assay type: cell-based; settings: conjugate in extracellular medium
[1] = Fluorescence change of rhodamine-peptide conjugate on addition of PIP2; assay type: binding; settings: 2 μM conjugate, 10 mM Tris pH 7.0, increasing PIP2 (FIG. 1A)
human melanoma cells = test: Transport into human melanoma cells (fluorescence microscopy, cell morphology); assay type: cell-based
NIH-3T3 fibroblasts = test: Transport into NIH-3T3 fibroblasts; assay type: cell-based, mouse; settings: conjugate in extracellular medium
dictyestelium discoidium = test: Transport into dictyestelium discoidium; assay type: cell-based; settings: conjugate in extracellular medium
neuronal cells = test: Transport into neuronal cells; assay type: cell-based; settings: conjugate in extracellular medium
[2] = tested on: cells exposed to conjugate in culture medium, regardless of the cell type
[3] = tested on: chinese hamster fibroblasts; test: Transport into chinese hamster fibroblasts; assay type: cell-based; settings: conjugate in extracellular medium
human blood platelets [4] = settings: 10 uM in extracellular culture medium
human blood platelets [5] = test: Transport into human blood platelets; assay type: cell-based; settings: intact platelets, conjugate in extracellular medium
[6] = tested on: polymorphonuclear leukocytes; test: Transport into polymorphonuclear leukocytes; assay type: cell-based; settings: conjugate in extracellular medium

CCN(CC)c1ccc2c(-c3ccccc3C(=O)N[C@@H](CCC(N)=O)C(=O)N[C@@H](CCCNC(=N)N)C(=O)O)c3ccc(=[N+](CC)CC)cc-3oc2c1 [QR]
penetration of cell membrane (neutrophils): cannot penetrate neutrophil cell membranes

CCN(CC)c1ccc2c(-c3ccccc3C(=O)N[C@@H](CCC(N)=O)C(=O)N[C@@H](CCCNC(=N)N)C(=O)N[C@@H](CC(C)C)C(=O)O)c3ccc(=[N+](CC)CC)cc-3oc2c1 [rhodamine-GS160-162]
cellular uptake (human blood monocytes): weakly entered monocytes | change of fluorescence intensity on addition of PIP2 [1]: affected to a lesser extent | penetration of cell membrane (neutrophils): cannot penetrate neutrophil cell membranes

QRLFQVKGRR [Seq. I.D. No. 2, QRLFQVKGRR]
change in cell morphology after microinjection (positive control) (human melanoma cells; 2 μM unlabeled peptide microinjected): same morphological changes

CCN(CC)c1ccc2c(-c3ccccc3C(=O)N[C@@H](CCC(N)=O)C(=O)N[C@@H](CCCNC(=N)N)C(=O)N[C@@H](CC(C)C)C(=O)N[C@@H](Cc3ccccc3)C(=O)N[C@@H](CCC(N)=O)C(=O)N[C@H](C(=O)N[C@@H](CCCCN)C(=O)NCC(=O)N[C@@H](CCCNC(=N)N)C(=O)N[C@@H](CCCNC(=N)N)C(=O)O)C(C)C)c3ccc(=[N+](CC)CC)cc-3oc2c1 [rhodamine-Sequence I.D. No. 2] (RhodamineB-QRLFQVKGRR-OH)
cellular uptake (human blood monocytes): rapidly and efficiently internalized | cellular uptake (NIH-3T3 fibroblasts): rapidly and efficiently internalized; also recorded: rapidly and efficiently taken up | cellular uptake (dictyestelium discoidium): rapidly and efficiently internalized | cellular uptake (neuronal cells): rapidly and efficiently internalized | change of fluorescence intensity on addition of PIP2 [1]: large increase | time to staining of intracellular components ([2]; <about 10 uM in the culture medium): on the order of seconds | entry into fixed cells ([2]; aldehyde fixed cells): entered into aldehyde fixed cells | membrane transport-mediating properties after pre-contact with PIP2 ([2]; carrier first contacted with micelles of phosphatidylinositol-4,5-bisphosphate): blocked | effect of cold temperature on staining ([2]; e.g. 4° C.): not affected by exposure to cold temperatures | membrane transport-mediating properties in serum ([2]; in the presence of serum): manifest in the presence of serum | cellular uptake [3]: rapidly and efficiently internalized | change in cell morphology / surface protrusion (human melanoma cells; 2 μM in culture medium, exposure for 4 seconds): flattened and stopped surface protrusion | changes in cell morphology and function after internalization (human melanoma cells; compared with microinjection of uncoupled Sequence I.D. No. 2): displayed the same changes in cell morphology and function | cellular uptake (human melanoma cells; conjugate in extracellular culture medium): entered human melanoma cells that had not been microinjected; also recorded: rapid and efficient cellular uptake; also recorded: rapidly and efficiently internalized; also recorded: rapidly and efficiently taken up | blocking of thrombin and glass-induced platelet activation (human blood platelets [4]): rapid, efficient and complete blocking | cellular uptake (human blood platelets [5]): rapidly and efficiently internalized; also recorded: rapidly and efficiently taken up | cellular uptake [6]: rapidly and efficiently internalized
